Results published in article PMC3248462.
These are yes or no findings as the source states them, for the method shown. Binding seen in cells or lysates may run through a third protein. Some results given as binding are weak or reduced against the parent protein; the word gives no strength.

Protein sequences, listed by entry. Tags and fused reporters are not part of them.
UniProt P09626: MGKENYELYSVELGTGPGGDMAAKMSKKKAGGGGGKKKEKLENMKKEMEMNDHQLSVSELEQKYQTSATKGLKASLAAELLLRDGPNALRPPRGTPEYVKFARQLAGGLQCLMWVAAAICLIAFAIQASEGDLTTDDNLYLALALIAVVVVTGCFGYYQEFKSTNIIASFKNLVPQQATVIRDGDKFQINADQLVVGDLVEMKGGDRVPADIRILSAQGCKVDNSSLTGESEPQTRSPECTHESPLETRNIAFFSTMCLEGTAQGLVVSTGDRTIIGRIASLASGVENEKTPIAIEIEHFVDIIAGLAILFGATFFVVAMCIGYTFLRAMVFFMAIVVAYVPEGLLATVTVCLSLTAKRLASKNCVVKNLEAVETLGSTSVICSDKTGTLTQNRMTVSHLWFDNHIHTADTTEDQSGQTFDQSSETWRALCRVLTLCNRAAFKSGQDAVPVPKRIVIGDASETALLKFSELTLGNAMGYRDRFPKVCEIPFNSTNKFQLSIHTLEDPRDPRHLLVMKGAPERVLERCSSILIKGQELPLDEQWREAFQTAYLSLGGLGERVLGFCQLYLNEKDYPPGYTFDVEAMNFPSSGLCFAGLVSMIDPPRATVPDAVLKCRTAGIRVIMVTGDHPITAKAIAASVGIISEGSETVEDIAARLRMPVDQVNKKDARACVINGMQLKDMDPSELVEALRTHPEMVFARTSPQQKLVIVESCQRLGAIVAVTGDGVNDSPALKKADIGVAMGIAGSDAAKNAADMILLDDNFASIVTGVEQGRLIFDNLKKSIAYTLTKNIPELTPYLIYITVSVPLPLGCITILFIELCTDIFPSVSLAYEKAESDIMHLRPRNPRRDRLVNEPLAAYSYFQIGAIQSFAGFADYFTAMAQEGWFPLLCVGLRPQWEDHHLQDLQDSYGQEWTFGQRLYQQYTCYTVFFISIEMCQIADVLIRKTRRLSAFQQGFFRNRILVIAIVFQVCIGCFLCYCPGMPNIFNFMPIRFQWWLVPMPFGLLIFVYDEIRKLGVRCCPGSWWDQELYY

Target: gastric H+,K+-ATPase α-subunit (UniProt P09626)
Test: co-IP; data not shown: COS cells expressing H+,K+-ATPase α- and β-subunits and HA-PP2A C-subunit; precipitation with HK9 antibody

B1: gastric H+,K+-ATPase β-subunit (protein, UniProt P18598 1-294)
chain: MAALQEKKSCSQRMAEFRQYCWNPDTGQMLGRTPARWVWISLYYAAFYVVMTGLFALCIYVLMQTIDPYTPDYQDQLKSPGVTLRPDVYGERGLQISYNISENSSWAGLTHTLHSFLAGYTPASQQDSINCSSEKYFFQETFSAPNHTKFSCKFTADMLQNCSGLVDPSFGFEEGKPCFIIKMNRIVKFLPSNNTAPRVDCTFQDDPQKPRKDIEPLQVQYYPPNGTFSLHYFPYYGKKAQPHYSNPLVAAKFLNVPKNTQVLIVCKIMADHVTFDNPHDPYEGKVEFKLTIQK
binding: binds
